Taken from: PubChem BioAssay AID1259254 (NCATS, 2017)
Shown is a random part of about 59,000 reagents tested. In the full data, about 1,550 (2.6%) are marked active. 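G2 share is only a proxy for re-replication; each gene was hit by three separate siRNAs, and active genes were retested.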 Raw values vary from plate to plate and are shown uncorrected. Unmarked entries are inactive. The numbers tell different reagents against one gene apart. The record does not give: the amount of reagent.

- Screen: 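Gene knock-downs that lead to re-replication, shown by excess G2 DNA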 (primary screen)
- System: human HCT116 colorectal cancer cells
- Knock-down reagent: single siRNA against human genes
- Time to read-out: 3 days
- Measured: 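Imaged Hoechst DNA stain sorts each cell into a cycle phase by DNA amount; per plate, G2 fraction set to 0% for non-targeting and 100% for GMNN siRNA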
- Reading the numbers: G2 robust z-score and G2 cells, % of GMNN control: higher = more G2 cells, more excess DNA replication; raw share of cells in G2: higher = larger share of cells with G2 DNA content
- Call rule: 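Active siRNAs have a G2 robust z of 5 or more median absolute deviations over the median, which in these data means about 38% or higher of GMNN control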

no.	Gene	reagent no.	G2 robust z-score	G2 cells, % of GMNN control	raw share of cells in G2 (%)
1	GLRX2 (GeneID 51022)	1	0.458	6.19	8.76
2	GLRX2 (GeneID 51022)	2	7.54 (active)	56	24.9
3	GLRX2 (GeneID 51022)	3	-0.805	-2.69	2.77
4	NLRC3 (GeneID 197358)	1	-0.661	-1.68	4.09
5	NLRC3 (GeneID 197358)	2	-0.966	-3.83	3.09
6	NLRC3 (GeneID 197358)	3	-0.607	-1.31	5.33
7	ZNF160 (GeneID 90338)	1	-0.343	0.553	3.28
8	ZNF160 (GeneID 90338)	2	0.971	9.8	6.57
9	ZNF160 (GeneID 90338)	3	-0.309	0.793	3.8
10	SP5 (GeneID 389058)	1	0.66	7.61	6.19
11	SP5 (GeneID 389058)	2	-0.226	1.38	3.57
12	SP5 (GeneID 389058)	3	-0.725	-2.13	2.43
13	PRMT6 (GeneID 55170)	1	-0.585	-1.15	3.86
14	PRMT6 (GeneID 55170)	2	-0.0659	2.5	5.34
15	PRMT6 (GeneID 55170)	3	0.618	7.31	9.64
16	USP18 (GeneID 11274)	1	2.8	22.6	13.5
17	USP18 (GeneID 11274)	2	-0.344	0.548	5.1
18	USP18 (GeneID 11274)	3	-0.242	1.26	4.38
19	PROSER2 (GeneID 254427)	1	0.514	6.58	5.3
20	PROSER2 (GeneID 254427)	2	-0.0755	2.44	4.46
21	PROSER2 (GeneID 254427)	3	-0.345	0.537	3.31
22	SEC23A (GeneID 10484)	1	0.181	4.24	7.54
23	SEC23A (GeneID 10484)	2	1.01	10.1	7.11
24	SEC23A (GeneID 10484)	3	-0.691	-1.89	5.73
25	HOMEZ (GeneID 57594)	1	-0.0712	2.47	5.22
26	HOMEZ (GeneID 57594)	2	0.299	5.07	7.75
27	HOMEZ (GeneID 57594)	3	1.42	12.9	8.93
28	ZNF480 (GeneID 147657)	1	0.713	7.99	5.84
29	ZNF480 (GeneID 147657)	2	-0.333	0.624	3.38
30	ZNF480 (GeneID 147657)	3	-0.982	-3.94	2.14
31	PRR5L (GeneID 79899)	1	-0.518	-0.676	2.19
32	PRR5L (GeneID 79899)	2	1.04	10.3	8.7
33	PRR5L (GeneID 79899)	3	1.89	16.2	11.4
34	ZSWIM5 (GeneID 57643)	1	-0.103	2.24	5.23
35	ZSWIM5 (GeneID 57643)	2	-0.196	1.59	5.22
36	ZSWIM5 (GeneID 57643)	3	1.53	13.7	7.37
37	MUC19 (GeneID 283463)	1	5.64 (active)	42.7	19.2
38	MUC19 (GeneID 283463)	2	1.1	10.7	7.18
39	MUC19 (GeneID 283463)	3	-0.11	2.19	3.93
40	MUC19 (GeneID 283463)	4	-0.425	-0.0244	3.66
41	MUC19 (GeneID 283463)	5	0.127	3.86	5.09
42	MUC19 (GeneID 283463)	6	1.43	13	8.38

Not a retest: 8 of the entries above.
no.	Gene	reagent no.	G2 robust z-score	G2 cells, % of GMNN control	raw share of cells in G2 (%)
22	SEC23A (GeneID 10484)	1	0.181	4.24	7.54
23	SEC23A (GeneID 10484)	2	1.01	10.1	7.11
24	SEC23A (GeneID 10484)	3	-0.691	-1.89	5.73
25	HOMEZ (GeneID 57594)	1	-0.0712	2.47	5.22
26	HOMEZ (GeneID 57594)	2	0.299	5.07	7.75
27	HOMEZ (GeneID 57594)	3	1.42	12.9	8.93
28	ZNF480 (GeneID 147657)	1	0.713	7.99	5.84
29	ZNF480 (GeneID 147657)	2	-0.333	0.624	3.38

The listing continues:
no.	Gene	reagent no.	G2 robust z-score	G2 cells, % of GMNN control	raw share of cells in G2 (%)
43	HNRNPUL2 (GeneID 221092)	1	1.95	16.7	11.7
44	HNRNPUL2 (GeneID 221092)	2	2.63	21.5	16.2
45	HNRNPUL2 (GeneID 221092)	3	0.71	7.97	7.62
46	COMMD5 (GeneID 28991)	1	3.36	26.6	14
47	COMMD5 (GeneID 28991)	2	-0.318	0.732	4.83
48	COMMD5 (GeneID 28991)	3	0.995	9.97	6.4
49	ARPC1B (GeneID 10095)	1	-0.697	-1.94	4.47
50	ARPC1B (GeneID 10095)	2	-0.689	-1.88	3.99
51	ARPC1B (GeneID 10095)	3	0.131	3.89	4.53
52	CHD2 (GeneID 1106)	1	-0.166	1.8	4.72
53	CHD2 (GeneID 1106)	2	-0.319	0.722	5.26
54	CHD2 (GeneID 1106)	3	-1.18	-5.35	3.05
55	PRIMPOL (GeneID 201973)	1	2.38	19.7	10.7
56	PRIMPOL (GeneID 201973)	2	-0.791	-2.59	2.09
57	PRIMPOL (GeneID 201973)	3	-0.271	1.06	3.1
58	HGF (GeneID 3082)	1	-0.281	0.99	5.9
59	HGF (GeneID 3082)	2	0.71	7.96	7.72
60	HGF (GeneID 3082)	3	-0.232	1.34	4.41
61	ARSF (GeneID 416)	1	-0.572	-1.06	3.6
62	ARSF (GeneID 416)	2	-1.05	-4.45	3.49
63	ARSF (GeneID 416)	3	-0.82	-2.8	3.77
64	SSPOP (GeneID 23145)	1	-0.822	-2.81	2.9
65	SSPOP (GeneID 23145)	2	-0.0423	2.67	7.44
66	SSPOP (GeneID 23145)	3	0.083	3.55	5.34
67	KRTAP19-6 (GeneID 337973)	1	0.248	4.71	5.32
68	KRTAP19-6 (GeneID 337973)	2	0.871	9.1	7.85
69	KRTAP19-6 (GeneID 337973)	3	-0.638	-1.52	3.46
